No constants are given. Whether binding was seen depends on the method and setting. Some entries that bind do so weakly or less than the wild type. Sequences can lack the tags named with a protein.

Amino acid sequences for entries named in this document (tags omitted). A change or cut given only in a name is not applied to a line headed by its entry.
UniProt P23025: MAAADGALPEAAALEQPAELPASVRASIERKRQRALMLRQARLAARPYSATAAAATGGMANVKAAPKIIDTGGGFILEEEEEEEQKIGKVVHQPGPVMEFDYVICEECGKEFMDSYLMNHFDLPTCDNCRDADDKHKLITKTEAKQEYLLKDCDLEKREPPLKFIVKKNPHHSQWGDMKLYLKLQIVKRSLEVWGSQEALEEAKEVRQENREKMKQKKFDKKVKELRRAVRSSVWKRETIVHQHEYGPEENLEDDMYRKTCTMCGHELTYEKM

For assay [1], the target named is T1, ERCC192-214 (central domain of ERCC1, N-terminal His6 tag).
T1 sequence: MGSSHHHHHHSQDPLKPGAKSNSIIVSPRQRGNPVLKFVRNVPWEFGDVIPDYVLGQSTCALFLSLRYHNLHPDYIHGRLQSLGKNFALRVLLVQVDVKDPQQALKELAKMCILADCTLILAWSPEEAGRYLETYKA
As to the kind of experiment: gel filtration (S-100) and SDS-PAGE of the peak fractions. For orientation: In gel filtration, larger molecules generally elute earlier.

The target is the same in assay [2]. Kind of assay: gel filtration (S100) of the complex; ERCC1 central domain construct (92-214 or 96-214) not specified.

On to XPA59-219 (from UniProt P23025 59-219), for which the binding result in assay [1] and in assay [2] was “binds” in each case.

The values above are taken from patent US20100331233A1, “CRYSTAL OF XPA AND ERCC1 COMPLEX AND USES THEREOF” (priority 2007, published 2010).
